The values below come from PubChem BioAssay AID248 (DTP/NCI, 2004).

This experiment deals with L1210 leukemia ip in BDF1 mice, survival T/C. Nature of the experiment: NCI In Vivo Anticancer Drug Screen. Data for tumor model L1210 Leukemia (intraperitoneal) in B6D2F1 (BDF1) mice. As to conditions: T/C endpoint: mean survival time, higher T/C = longer survival.
[1] abbreviates: dose: 150.0 mg/kg/injection, schedule: Q01DX001 (ip), vehicle: saline.
[2] abbreviates: dose: 300.0 mg/kg/injection, schedule: Q01DX001 (ip), vehicle: saline.
The mark [3] stands for this setting: dose: 200.0 mg/kg/injection, schedule: Q04DX003 (ip), vehicle: Klucel (hydroxypropylcellulose) (HPC).
[4] abbreviates: dose: 400.0 mg/kg/injection, schedule: Q04DX003 (ip), vehicle: Klucel (hydroxypropylcellulose) (HPC).
[5] abbreviates: dose: 200.0 mg/kg/injection, schedule: Q04DX003 (ip), vehicle: saline.
Setting [6] is: dose: 200.0 mg/kg/injection, schedule: Q01DX001 (ip), vehicle: saline.
[7] abbreviates: dose: 400.0 mg/kg/injection, schedule: Q01DX001 (ip), vehicle: saline.
The mark [8] stands for this setting: dose: 200.0 mg/kg/injection, schedule: Q01DX009 (ip), vehicle: saline.
Setting [9] is: dose: 400.0 mg/kg/injection, schedule: Q01DX009 (ip), vehicle: saline.
Where [10] appears, read: dose: 100.0 mg/kg/injection, schedule: Q01DX009 (ip), vehicle: saline.

The list shows only some results of the screen, not a fair sample: it is rich in T/C values a quarter to a half above the control, in often repeated tests (any T/C) and in doses without a T/C. Further doses and runs are listed elsewhere. T/C: endpoint of the treated group in % of that of the vehicle group. Some doses have a count of surviving animals in place of a T/C: the source holds a T/C of zero for them, seemingly a mark for toxic or unscored doses. Some doses without a T/C left all or most animals alive at the check, yet need not have been tolerated: the source hardly ever lists a survival T/C far under the control, and the zero likely stands for such cases as well. Counts of survivors are from the toxicity check (mostly the fifth day) where no day follows; animals may have died later. Schedule codes are those of the source, taken here to give the interval after Q, in days (D) or hours (H), and the number of doses after X. Some doses were run more than once; the values are given in rising order. Where survival is the endpoint, this PubChem deposit counts one and a half times the control or more as active, and values a quarter to a half above the control carry no call in these data; other NCI protocols may use other cut-offs. Some T/C values carry the count of animals alive at the toxicity check (mostly the fifth day); where none is given, no animal had died by that day.

Take `C(=C/c1ccnc(/C=C/c2ccccc2)c1)/c1ccccc1`: the survivor count (dose: 50.0 mg/kg/injection, schedule: Q01DX009 (ip), vehicle: acetone) is reported as 6 of 6 and the survivor count (dose: 400.0 mg/kg/injection, schedule: Q04DX003 (ip), vehicle: acetone) is recorded as 6 of 6.

Regarding `COc1ccccc1CNC1CCCCC1`, the survivor count under setting [1] is listed as 2 of 6 and the survivor count under setting [2] is on record as 1 of 6.

As to `CC12CCC3C4CCC(O)CC4=CCC3C1CCC2=O` (stereo unspecified), the survivor count (dose: 200.0 mg/kg/injection, schedule: Q01DX001 (ip), vehicle: Klucel (hydroxypropylcellulose) (HPC)) was 3 of 3.

For the molecule `O=C(O)C1C(C(=O)Nc2cc(C(F)(F)F)ccc2Cl)C2(Cl)C(Cl)=C(Cl)C1(Cl)C2(Cl)Cl` (stereo unspecified), the survivor count reads like this: (dose: 25.0 mg/kg/injection, schedule: Q04DX003 (ip), vehicle: Klucel (hydroxypropylcellulose) (HPC)) 6 of 6; (dose: 100.0 mg/kg/injection, schedule: Q01DX009 (ip), vehicle: Klucel (hydroxypropylcellulose) (HPC)) 4 of 6; under setting [3], 5 of 6; under setting [4], 0 of 6.

`CC(Oc1ccccc1)C(=O)NC(=S)Nc1cc(Cl)ccc1Cl` (stereo unspecified): the survivor count runs as follows: (dose: 400.0 mg/kg/injection, schedule: Q01DX001 (ip), vehicle: other) 6 of 6; (dose: 400.0 mg/kg/injection, schedule: Q01DX009 (ip), vehicle: other) 1 of 3; (dose: 400.0 mg/kg/injection, schedule: Q04DX002 (ip), vehicle: other) 3 of 3.

As to `N#CCCP(CCC#N)CCCCP(CCC#N)CCC#N`, the survivor count by setting is: (dose: 100.0 mg/kg/injection, schedule: Q01DX001 (ip), vehicle: saline with Tween-80) 0 of 6; (dose: 200.0 mg/kg/injection, schedule: Q01DX001 (ip), vehicle: saline with Tween-80) 0 of 6; (dose: 400.0 mg/kg/injection, schedule: Q01DX001 (ip), vehicle: saline with Tween-80) 0 of 6.

Regarding `ClC1=C(Cl)C2(Cl)C(COc3ccc(Cl)cc3)CC1(Cl)C2(Cl)Cl` (stereo unspecified), the survivor count was 3 of 6 (dose: 100.0 mg/kg/injection, schedule: Q01DX009 (ip), vehicle: other); 2 of 6 (dose: 200.0 mg/kg/injection, schedule: Q01DX009 (ip), vehicle: other); 1 of 6 (dose: 400.0 mg/kg/injection, schedule: Q04DX003 (ip), vehicle: other).

In the case of `CN(C)P1(=O)OCC(C(C)(C)C)CO1` (stereo unspecified), the survivor count is, setting by setting: under setting [5], 1 of 6; (dose: 400.0 mg/kg/injection, schedule: Q04DX003 (ip), vehicle: saline) 0 of 6.

On to `Cc1ccc2nc(C)cc(NC(=O)c3ccccc3)c2c1`, for which the survivor count (dose: 100.0 mg/kg/injection, schedule: Q01DX001 (ip), vehicle: saline) is recorded as 0 of 6; the survivor count under setting [6] is on record as 0 of 6; the survivor count under setting [7] is recorded as 0 of 6.

Consider `CC(C)=NNC(=O)NO`, for which the survivor count is reported as 3 of 6 under setting [1] and 0 of 6 under setting [2].

As to `CCCCCCCc1cc2ccccc2c2c(N)nc(N)nc12`, the survivor count runs as follows: under setting [3], 0 of 6; (dose: 400.0 mg/kg/injection, schedule: Q01DX001 (ip), vehicle: Klucel (hydroxypropylcellulose) (HPC)) 1 of 6; under setting [4], 0 of 6.

With `CC(C)[As](=O)(O)O`, the survivor count under setting [8] is reported as 3 of 6 and the survivor count under setting [9] was 0 of 6.

With `CC1(C)N=C(N)N=C(N)N1c1ccc(CNC(=O)Nc2cccc(S(=O)(=O)F)c2)cc1`, the T/C was 135 % of control (dose: 25.0 mg/kg/injection, schedule: Q01DX009 (ip), vehicle: saline); 142 % of control (dose: 50.0 mg/kg/injection, schedule: Q01DX009 (ip), vehicle: saline); 133 % of control under setting [10]; 130 % of control (dose: 132.0 mg/kg/injection, schedule: Q04DX003 (ip), vehicle: saline); 132 % of control under setting [8]; 125 % of control under setting [5]. The T/C (dose: 300.0 mg/kg/injection, schedule: Q04DX003 (ip), vehicle: saline) is 126 % of control [5 of 6 alive]. Besides, the survivor count by setting is: under setting [10], 6 of 6; under setting [8], 3 of 5; under setting [9], 2 of 6 and 6 of 6.

On to `CN=C1C2CCC(C2)CC1(O)c1ccccc1` (stereo unspecified), for which, under setting [6], the survivor count was 1 of 6.

Take `CC(=O)NNC(=O)c1ccccn1`: the survivor count (dose: 256.0 mg/kg/injection, schedule: Q01DX009 (oral), vehicle: saline) was 4 of 10; the survivor count (dose: 512.0 mg/kg/injection, schedule: Q01DX001 (ip), vehicle: saline) is on record as 2 of 10; the survivor count (dose: 512.0 mg/kg/injection, schedule: Q01DX001 (oral), vehicle: saline) is reported as 0 of 10; the survivor count (dose: 512.0 mg/kg/injection, schedule: Q01DX009 (oral), vehicle: saline) is 0 of 10; the survivor count (dose: 512.0 mg/kg/injection, schedule: Q04DX003 (ip), vehicle: saline) is 0 of 10; the survivor count (dose: 512.0 mg/kg/injection, schedule: Q08DX002 (ip), vehicle: saline) was 2 of 10. Moreover, under “dose: 1024.0 mg/kg/injection, schedule: Q01DX001 (oral), vehicle: saline”, the survivor count is reported as 0 of 10.

`CCCCCCCN=C(N)c1ccc(C(=O)OCc2ccccc2)cc1`: under setting [7], the survivor count is on record as 1 of 6.

With `Clc1cc[n+](-c2ccncc2)cc1`, the survivor count under setting [9] is recorded as 6 of 6.

On to `CCOc1ccc(C(=O)CCN2CCOCC2)cc1`, for which, under setting [7], the survivor count was 0 of 4.
